We go through three molecules from PMC11053110.

Positions count from the first letter of the chain named. Results are given in words; binding and its absence hold for the method and conditions named. For some of these results: In cells and extracts the contact can be indirect. Some binding calls cover weakened binding; strength is not graded here.

The target of assay [1] is T1, Irf3 (wild type, mouse, endogenous) (mouse (endogenous in BMDCs)), P70671.
T1 chain: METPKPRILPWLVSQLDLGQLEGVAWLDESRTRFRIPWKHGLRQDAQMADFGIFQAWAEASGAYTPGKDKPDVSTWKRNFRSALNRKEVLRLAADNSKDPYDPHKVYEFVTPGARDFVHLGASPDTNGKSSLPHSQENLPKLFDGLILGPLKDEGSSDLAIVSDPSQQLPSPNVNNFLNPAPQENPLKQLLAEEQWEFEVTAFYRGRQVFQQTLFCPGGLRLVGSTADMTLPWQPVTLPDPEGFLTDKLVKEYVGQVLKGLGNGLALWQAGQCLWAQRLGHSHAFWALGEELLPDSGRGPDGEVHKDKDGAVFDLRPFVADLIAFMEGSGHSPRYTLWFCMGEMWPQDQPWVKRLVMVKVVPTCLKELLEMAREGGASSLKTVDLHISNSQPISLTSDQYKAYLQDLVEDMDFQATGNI
In words: native gel or EMSA. The settings on record: remark: other sources report otherwise. (In general: In EMSA bound probe runs differently from free probe, usually more slowly.)

In assay [2] the target is Irf3_P10A (mouse, knock-in) (mouse) (UniProt P70671). Nature of the assay: native gel or EMSA.
Assay [3] concerns the target T2, ectopic P10A IRF3 (human) (UniProt Q14653).
T2 sequence: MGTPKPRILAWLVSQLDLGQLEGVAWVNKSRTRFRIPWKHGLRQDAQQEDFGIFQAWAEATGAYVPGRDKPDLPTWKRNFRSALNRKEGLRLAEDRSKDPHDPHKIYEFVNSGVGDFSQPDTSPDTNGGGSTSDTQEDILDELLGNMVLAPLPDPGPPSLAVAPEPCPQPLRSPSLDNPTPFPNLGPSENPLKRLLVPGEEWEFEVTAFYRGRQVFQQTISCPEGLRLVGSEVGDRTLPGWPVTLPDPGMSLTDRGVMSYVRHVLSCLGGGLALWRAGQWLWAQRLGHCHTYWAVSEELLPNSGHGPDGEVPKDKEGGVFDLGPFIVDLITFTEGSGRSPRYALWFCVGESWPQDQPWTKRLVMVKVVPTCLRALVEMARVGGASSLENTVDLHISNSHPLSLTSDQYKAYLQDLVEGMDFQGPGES
In words: co-IP.

Assay [4] has as its target T3, ectopic WT IRF3 (Supplementary Fig. 13h) (human) (UniProt Q14653).
T3 sequence: T2 sequence with A10P
Nature of the assay: co-IP.

B1: Irf3 (wild type, mouse, endogenous), P70671 1-419 (protein)
chain: T1 chain
For the molecule B1, in assay [1], the binding result is “binds”.

B2: Irf3_P10A (mouse, knock-in) (protein, UniProt P70671 1-419)
chain: T1 chain with P10A
Take B2: the binding result in assay [2] is on record as “binds”.

B3: endogenous TBK1 (enzyme, UniProt Q9UHD2 1-729)
chain: MQSTSNHLWLLSDILGQGATANVFRGRHKKTGDLFAIKVFNNISFLRPVDVQMREFEVLKKLNHKNIVKLFAIEEETTTRHKVLIMEFCPCGSLYTVLEEPSNAYGLPESEFLIVLRDVVGGMNHLRENGIVHRDIKPGNIMRVIGEDGQSVYKLTDFGAARELEDDEQFVSLYGTEEYLHPDMYERAVLRKDHQKKYGATVDLWSIGVTFYHAATGSLPFRPFEGPRRNKEVMYKIITGKPSGAISGVQKAENGPIDWSGDMPVSCSLSRGLQVLLTPVLANILEADQEKCWGFDQFFAETSDILHRMVIHVFSLQQMTAHKIYIHSYNTATIFHELVYKQTKIISSNQELIYEGRRLVLEPGRLAQHFPKTTEENPIFVVSREPLNTIGLIYEKISLPKVHPRYDLDGDASMAKAITGVVCYACRIASTLLLYQELMRKGIRWLIELIKDDYNETVHKKTEVVITLDFCIRNIEKTVKVYEKLMKINLEAAELGEISDIHTKLLRLSSSQGTIETSLQDIDSRLSPGGSLADAWAHQEGTHPKDRNVEKLQVLLNCMTEIYYQFKKDKAERRLAYNEEQIHKFDKQKLYYHATKAMTHFTDECVKKYEAFLNKSEEWIRKMLHLRKQLLSLTNQCFDIEEEVSKYQEYTNELQETLPQKMFTASSGIKHTMTPIYPSSNTLVEMTLGMKKLKEEMEGVVKELAENNHILERFGSLTMDGGLRNVDCL
B3: the binding result in assay [3] and in assay [4] was “binds” in each case.
